# Measured values taken from patent US20190209506A1, “METHODS OF REDUCING OR PREVENTING OXIDATION OF LDL OR LIPID MEMBRANES IN A SUBJECT IN NEED THEREOF” (Amarin Pharmaceuticals Ireland Limited, priority 2018, published 2019).
# For at least one compound, name, drawing or mass did not settle the structure.
# How the values were obtained:
# [1] = Membrane cholesterol domain structural integrity, x-ray diffraction (Example 9); settings: D/P mole ratio 1:30; for % change Vs control (cholesterol domain peak intensity) / Relative Cholesterol Domain Peak Intensity: C/P 1.5:1
# Protocol: Multilamellar vesicles (MLVs) were prepared as binary mixtures that include palmitoyloleoylphosphatidylcholine (POPC) (1.0 mg total phospholipid per sample) and cholesterol at an elevated cholesterol-to-phospholipid (C/P) mole ratio of 1.5:1. […] Samples were shell-dried under nitrogen gas and placed under vacuum for 3 hours to remove residual solvent at room temperature. After desiccation, each sample was resuspended in saline buffer (0.5 mM HEPES, 154 mM NaCl, pH 7.3) to yield a final phospholipid concentration of 2.5 mg/mL. Lipid suspensions were then vortexed for 3 minutes at ambient temperature to form MLVs.
# Briefly, a 100 μL aliquot of each MLV preparation (containing 250 μg MLV) was transferred to a Lucite® sedimentation cell fitted with an aluminum foil substrate designed to collect MLVs into a single membrane pellet upon centrifugation. Samples were then loaded into a Sorvall AH-629 swinging bucket rotor (DuPont Corp., Wilmington, Del.) and centrifuged at 35,000 g, 5° C., for 90 minutes.
# After centrifugal orientation, sample supernatants were aspirated and aluminum foil substrates, each supporting a single membrane pellet, were removed from the sedimentation cells. Sample pellets were dried for 5-10 minutes at ambient conditions, mounted onto curved glass supports, and placed in hermetically-sealed, brass or glass containers (for immediate analysis or temporary storage, respectively). All x-ray diffraction experiments were conducted at 20° C., 74% relative humidity. The latter was established by exposing membrane samples to saturated solutions of […] (K2C4H4O6.½H2O) for at least 1 hour prior to experimental analysis.
# Oriented membrane samples were aligned at grazing incidence with respect to a collimated, mono-chromatic CuKα x-ray beam (Kα1 and Kα2 unresolved; λ=1.54 Å) produced by a Rigaku Rotaflex RU-200, high-brilliance microfocus generator (Rigaku-MSC, The Woodlands, Tex.) as previously described (Mason et al., Biophys. J., vol. 55(4), pages 769-778 (1989)). The samples were initially subjected to x-ray diffraction analysis at least 12 hours after formation of the membrane pellets and retested for up to several days. Analytical x-rays were generated by electron bombardment of a rotating copper anode and are filtered through a thin nickel foil to provide monochromatic radiation (λ=1.54 Å). Collimation of the x-ray beam was achieved using a single Franks mirror. Diffraction data were collected on a one-dimensional, position-sensitive electron detector (Hecus X-ray Systems, Graz, Austria) at a sample-to-detector distance of 150 mm from the sample site.
# The d-space for any given membrane multi bilayer is a measurement of the unit cell periodicity of the membrane lipid bilayer (e.g., the distance from the center of one lipid bilayer to the next including surface hydration), and is calculated from Bragg's Law, hλ=2d sin θ, where h is the diffraction order, λ is the wavelength of the x-ray radiation (1.54 Å), d is the membrane lipid bilayer unit cell periodicity, and θ is the Bragg angle equal to one-half the angle between the incident beam and scattered beam.
# The presence of cholesterol domains in a given membrane sample results in the production of distinct Bragg (diffraction) peaks having singular periodicity values of 34 and 17 Å (typically referred to as first- and second-order cholesterol domain peaks). Under the specific temperature and relative humidity conditions established for these experiments, the second-order, 17 Å cholesterol domain peak was well-delineated from other, neighboring cholesterol and phospholipid diffraction peaks and was thus used to quantitate relative cholesterol domain peak intensity. Routines written in Origin 8.6 (OriginLab Corporation, Northampton, Mass.) were used to determine total peak area (associated with all diffraction peaks in a given pattern) against which the second-order cholesterol domain peak was normalized.
# human sdLDL = assay: Copper-induced sdLDL oxidation with fatty acids, TBARS/MDA (Example 14); type: biochemical; settings: 1.0 μM; for inhibition of lipoprotein oxidation versus vehicle: 40 minutes; for inhibition of oxidation compared to vehicle: 60 minutes
# Protocol: Venous blood was collected from healthy volunteers into vacutainer tubes. Plasma was separated by centrifugation at 3000 g for 25 min at 4° C. and adjusted to a density of 1.020 g/mL with KBr. sdLDL was isolated from the plasma of healthy volunteers by iodixanol density gradient ultracentrifugation and adjusted to a final apolipoprotein concentration of 2 mg/mL. An aliquot of sdLDL (50 μL) was incubated with either 10 μL vehicle (ethanol) or 10 μL FA (EPA, ETE, AA, EA, DHA, DPA, ALA, LA or SA) treatment stock solution (100 μM) for 30 min at 37° C. Oxidation was initiated with addition of initiator CuSO4 (10.0 μM). At certain time points (0, 40, 60, and 120 minutes), […] were removed from each subfraction and combined with 1.0 mL thiobarbituric acid (0.5%), 10 μL trichloroacetic acid (10%), 10 μL butylated hydroxytoluene (BHT; 35 mM in ethanol), and 10 μL ethylenediaminetetraacetic acid (EDTA; 5 mM). Sample aliquots were incubated at 100° C. for 30 min and then assayed for the formation of thiobarbituric acid reactive substances (TBARS), which have a molar absorptivity (ε) value of 1.56×105 M^−1 cm^−1 at 532 nm and are largely derived from the reaction of thiobarbituric acid with MDA, a reactive aldehyde produced by sdLDL oxidation. Sample TBARS concentrations were determined spectrophotometrically by measuring sample absorbances against a standard curve derived from the hydrolysis of 1,1,3,3-tetramethoxypropane.
# Human sdLDL particles = assay: Kinetic model of MDA formation in sdLDL oxidation (Example 15); type: biochemical
# Protocol: Human sdLDL particles were isolated and incubated in vitro with vehicle or with varying concentrations of EPA, DHA, or EPA and DHA. Once incubated, copper sulfate (CuSO4) was added to induce oxidation of the sdLDL particles. The sdLDL particles were then assayed for the detection of malondialdehyde (MDA), a known marker of oxidation.
# Various kinetic models were evaluated and eventually fit to the sdLDL oxidation data to describe the concentration of MDA in each sample. Both population parameter estimates and associated variabilities were generated for the formation of MDA (Kf) and degradation of MDA (Ke) rates.
# The final kinetic model is a 1 compartment model having a first order Ke and an additive first order Kf.
# [2] = LOOH formation in membrane vesicles, fatty acid comparison (Example 16); type: biochemical; settings: 5 μM; 0.1 μM copper sulfate, 48 hours
# Protocol: Iodometric approaches were used to measure in vitro LOOH formation in membrane vesicles reconstituted as binary mixtures of cholesterol and dilinoleoyl phosphatidylcholine. Vesicles were prepared at a cholesterol-to-phospholipid mole ratio of 0.6:1 and subjected to autoxidation (e.g., lipid oxidation) at 37° C. Lipid oxidation was stimulated with 0.1 μM copper sulfate for 48 hours. All FAs were delivered at 5 and 10 μM.
SMILES,effect on cholesterol domains [1],% change Vs control (cholesterol domain peak intensity) [1],Relative Cholesterol Domain Peak Intensity [1],inhibition of lipoprotein oxidation versus vehicle (human sdLDL),inhibition of oxidation compared to vehicle (human sdLDL),MDA Equivalents (Mean ± SD) (human sdLDL; time point 0 min),MDA Equivalents (Mean ± SD) (human sdLDL; time point 40 min),MDA Equivalents (Mean ± SD) (human sdLDL; time point 60 min),MDA Equivalents (Mean ± SD) (human sdLDL; time point 120 min),"reduction of Kf (formation rate of MDA) (Human sdLDL particles; 5 μM, after 8 hours)","reduction of Kf predicted by the kinetic model (Human sdLDL particles; 10 μM alone, predicted)",reduction of LOOH levels compared to the vehicle [2]
"CC/C=C\C/C=C\C/C=C\C/C=C\C/C=C\C/C=C\CCC(=O)O [DHA, docosahexaenoic acid]",did not reduce cholesterol domains,−11.1 ± 11.7%,37.6±2.4,33%,7%,0.33 ± 0.11 µM,7.08 ± 0.34 µM,10.73 ± 0.32 µM,13.16 ± 0.56 µM,37%,48%,11%
"CC/C=C\C/C=C\C/C=C\C/C=C\C/C=C\CCCCCC(=O)O [DPA, docosapentaenoic acid]",did not reduce domains compared to EPA,−20.8 ± 12.2%,33.5 ± 2.7,34%,9%,0.41 ± 0.05 µM,6.98 ± 0.57 µM,10.48 ± 0.22 µM,13.26 ± 0.29 µM,,,48%
